In patent publication US20130078245A1:
No constants are given. Whether binding was seen depends on the method and setting. Some entries that bind do so weakly or less than the wild type.

By UniProt entry, the sequences of proteins in these tests, tags left out. Residues count along the entry.
UniProt P01027, residues 955-1303: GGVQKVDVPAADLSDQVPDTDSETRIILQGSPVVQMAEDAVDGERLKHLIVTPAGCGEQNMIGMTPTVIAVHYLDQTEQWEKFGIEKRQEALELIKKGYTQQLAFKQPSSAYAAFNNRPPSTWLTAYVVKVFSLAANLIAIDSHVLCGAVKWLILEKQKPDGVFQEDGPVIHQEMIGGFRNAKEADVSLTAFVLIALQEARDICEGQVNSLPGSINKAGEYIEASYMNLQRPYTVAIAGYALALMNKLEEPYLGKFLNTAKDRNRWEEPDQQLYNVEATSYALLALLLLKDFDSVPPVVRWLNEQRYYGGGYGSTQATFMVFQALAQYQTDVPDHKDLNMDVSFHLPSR
UniProt P01024, residues 996-1303: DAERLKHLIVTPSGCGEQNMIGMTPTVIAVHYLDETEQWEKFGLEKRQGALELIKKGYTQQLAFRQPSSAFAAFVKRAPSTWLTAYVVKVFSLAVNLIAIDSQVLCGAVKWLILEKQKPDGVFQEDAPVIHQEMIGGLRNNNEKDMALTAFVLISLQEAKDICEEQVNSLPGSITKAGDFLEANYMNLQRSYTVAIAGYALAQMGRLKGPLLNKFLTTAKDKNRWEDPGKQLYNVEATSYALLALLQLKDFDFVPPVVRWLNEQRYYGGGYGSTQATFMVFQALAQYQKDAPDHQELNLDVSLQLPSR
UniProt P20023, residues 21-153: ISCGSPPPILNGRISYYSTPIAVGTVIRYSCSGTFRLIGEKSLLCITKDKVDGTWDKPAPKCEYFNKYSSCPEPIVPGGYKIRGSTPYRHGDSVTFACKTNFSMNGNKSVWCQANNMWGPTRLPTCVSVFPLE

Experiments:
[1] = biological target: mouse C3 fragments iC3b and C3dg/C3d bound to a surface (C3-opsonized zymosan particles; glomerular deposits in factor H deficient mice) (mouse) (UniProt P01027); assay: 0.5 mg CR2-Fc injected into an fH-/- mouse by the tail vein, kidneys after 24 hours, FITC anti-mouse IgG
[2] = biological target: recombinant human C3d (human) (UniProt P01024); assay: ELISA on plate-bound C3d, detected with HRP anti-MBP; signal given as % binding [left panel]

chimeric protein comprised of the iC3b/C3d binding region of human CR2 linked to the Fc region of mouse IgG1 (CR2-Fc) (from UniProt P20023 21-153) (Fc fusion)
binding [1]: binds

recombinant maltose binding protein (MBP)-CR2 SCRs 1-2 (from UniProt P20023 21-153) (receptor)
binding [2]: binds
